The target of the assay is Dynamin-related protein 1 (rat (endogenous in primary cortical neurons)) (UniProt O35303). Kind of assay: co-IP; mitochondrial or cytosolic fractions of primary cortical neurons incubated 4 h at 4°C with protein A/G PLUS agarose carrying 2 μg anti-PKCδ or anti-Drp1 antibody; blotted with anti-PKCδ and anti-Drp1; IgG as negative control; normal conditions, H2O2 (100 μM, 6 h), and pretreatment with YQFM (400 μg/ml), rottlerin (1 μM) or Mdivi-1 (25 μM).

The chains behind the UniProt entries cited, without tags or fusion partners.
UniProt O35303: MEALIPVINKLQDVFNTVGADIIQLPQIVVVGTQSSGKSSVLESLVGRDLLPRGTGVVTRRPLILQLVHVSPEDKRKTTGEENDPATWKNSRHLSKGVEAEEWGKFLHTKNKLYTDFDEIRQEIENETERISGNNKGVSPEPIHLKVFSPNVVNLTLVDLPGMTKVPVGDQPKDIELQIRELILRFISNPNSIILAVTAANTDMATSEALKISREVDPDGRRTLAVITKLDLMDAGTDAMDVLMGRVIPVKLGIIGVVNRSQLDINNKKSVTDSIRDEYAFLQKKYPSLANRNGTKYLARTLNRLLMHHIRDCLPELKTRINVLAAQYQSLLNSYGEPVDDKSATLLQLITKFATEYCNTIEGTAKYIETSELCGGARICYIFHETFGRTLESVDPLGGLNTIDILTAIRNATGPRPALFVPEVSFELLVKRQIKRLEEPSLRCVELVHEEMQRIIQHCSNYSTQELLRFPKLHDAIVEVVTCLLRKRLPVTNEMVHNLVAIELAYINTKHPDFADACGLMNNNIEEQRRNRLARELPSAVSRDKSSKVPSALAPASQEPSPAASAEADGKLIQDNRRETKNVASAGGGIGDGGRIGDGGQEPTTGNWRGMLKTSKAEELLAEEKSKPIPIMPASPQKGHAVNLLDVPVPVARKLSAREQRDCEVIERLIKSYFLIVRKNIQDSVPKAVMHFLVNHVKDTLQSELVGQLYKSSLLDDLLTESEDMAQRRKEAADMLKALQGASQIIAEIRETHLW
UniProt P09215: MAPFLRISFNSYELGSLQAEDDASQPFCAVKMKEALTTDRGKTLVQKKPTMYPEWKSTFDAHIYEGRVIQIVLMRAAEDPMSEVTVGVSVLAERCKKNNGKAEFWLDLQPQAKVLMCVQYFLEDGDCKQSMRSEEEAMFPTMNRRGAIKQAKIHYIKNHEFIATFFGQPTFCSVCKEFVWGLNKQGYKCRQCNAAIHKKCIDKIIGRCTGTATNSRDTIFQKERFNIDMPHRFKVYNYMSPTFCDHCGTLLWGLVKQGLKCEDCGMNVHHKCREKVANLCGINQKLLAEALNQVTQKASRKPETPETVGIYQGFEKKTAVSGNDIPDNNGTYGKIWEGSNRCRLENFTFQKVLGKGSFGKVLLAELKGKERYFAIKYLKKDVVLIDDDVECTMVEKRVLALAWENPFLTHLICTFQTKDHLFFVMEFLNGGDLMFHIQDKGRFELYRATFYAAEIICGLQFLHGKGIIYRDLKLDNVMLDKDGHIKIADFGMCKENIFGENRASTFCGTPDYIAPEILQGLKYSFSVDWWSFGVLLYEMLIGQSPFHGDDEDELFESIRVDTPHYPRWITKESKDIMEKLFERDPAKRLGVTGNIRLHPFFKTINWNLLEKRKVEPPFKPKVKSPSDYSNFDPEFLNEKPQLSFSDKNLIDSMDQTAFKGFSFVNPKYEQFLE

These are yes or no findings as the source states them, for the method shown. In cells and extracts the contact can be indirect. Some entries that bind do so weakly or less than the wild type.

On to “Protein kinase C-delta (from UniProt P09215 1-673) (enzyme)”, for which the binding result was “binds”.

The record behind these values is article PMC5757147.
